Assay results taken from PubChem BioAssay AID1259415 (National Center for Advancing Translational Sciences (NCATS), 2018).
Where “and” joins values, the source holds several entries; their conditions need not be identical. Equal entries are not always repeated. The whole screen tested about 410,000 compounds, of which about 18,000 (4.4%) were called active. The shares of active, inactive and inconclusive entries below differ from those in the screen. Rule as the data show it: active = activity change below about -60%; inconclusive = no clear call, values can overlap the other calls; inactive = above about -39%.

test: qHTS Assay for inhibitors of the human cytomegalovirus (HCMV); conditions: HFF cells, HCMV-luciferase reporter, 72 h; at 57.5 µM; active compounds read low
In short: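 HFF cells seeded 16 h at 37C, treated with compounds, infected with luciferase-reporter HCMV at MOI 1 PFU/cell; luciferase read at 72 h post infection, normalized to buffer-only and Salinomycin controls.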
% is scaled to controls: 0 for no effect and ±100 for the full control effect.

SMILES	activity change, negative = inhibition
COc1ccc(CC(=O)Nc2cc(S(=O)(=O)Nc3ccc(OC)cc3)ccc2OC)cc1	inconclusive: -42.9%
Cc1nn(-c2ccccc2)c(Cl)c1CN(C(=O)CCl)c1ccc(Cl)cc1	active: -99.4%
COc1ccc(CCNC(=O)C(=O)Nc2ccc3c(c2)OCCO3)cc1OC	inconclusive: -52.9%
COc1ccc(OCCC(=O)OCC(=O)Nc2cccc(S(=O)(=O)N3CCCCC3)c2)cc1	inconclusive: -47.1%
C/C(=N/NC(=O)CNC(=O)/C=C/c1ccco1)c1ccc(Cl)cc1	inconclusive: -42.8%
COC(=O)[C@H]1[C@H]2C[C@H]3c4[nH]c5ccccc5c4CCN3C[C@H]2CC[C@@H]1O	inactive: -39.3%
O=C(NC1CCCCC1)C(c1cccs1)N(Cc1cccs1)C(=O)c1ccco1 (stereo not given)	inconclusive: -49.8%
CCCOc1ccc(C(=O)c2nc3c(n2O)CCCC3)cc1	inactive: -1.69%
CCOc1ccccc1N1C(=O)CC(Nc2ccc(N3CCOCC3)cc2)C1=O (stereo not given)	inconclusive: -53.6%
O=C(CSc1cccs1)Nc1cccc2ccccc12	inconclusive: -40.9%
CC(C)(C)OC(=O)NCCCC[C@H](NC(=O)c1nc[nH]c1C(=O)NC(c1ccccc1)c1ccccc1)C(=O)OC(C)(C)C	inconclusive: -43.7%
CCc1ccc(CNC(=O)CCSCc2ccccc2F)cc1	inactive: -17.8%
CCOc1ccc(NC(=O)c2ccc(N3CC4CC(C3)c3cccc(=O)n3C4)c(N)c2)cc1 (stereo not given)	inconclusive: -42.5%
COc1cc(OC)c(C2Nc3ccccc3NC3=C2C(=O)CC(C)(C)C3)cc1OC (stereo not given)	inactive: 49.2%
COc1ccc(CCNC(=O)CSc2nc(N)cc(=O)[nH]2)cc1OC	inactive: -19.2%
COc1ccc(OC)c(NC(=O)c2cc(-c3cc(Cl)ccc3O)n[nH]2)c1	inconclusive: -40.3%
CN(CCO)c1c2c(nc3cc(-c4cccc(F)c4)nn13)CCCC2	inactive: 110%
Cc1ccc(C)c(NC(=O)c2ccc3c(c2)N(Cc2ccc(F)cc2)C(=O)CS3=O)c1 (stereo not given)	inconclusive: -48.3%
Cc1ccc(-c2ccc(=O)n(Cc3cc(C)ccc3C)n2)cc1	inconclusive: -56.8%
O=C(O)c1cccnc1SCc1ccc([N+](=O)[O-])cc1	inactive: 66.4%
COc1ccc(C(=O)NCc2nnc(SCC(=O)N3CCc4ccccc43)n2Cc2ccccc2)cc1	inactive: -20.9%
CC(/C=C1\SC(=S)N(CCC(=O)Nc2ccc(O)cc2)C1=O)=C\c1ccccc1	inconclusive: -43.4%

SMILES	activity change, negative = inhibition
Cc1nc(-c2ccccc2)sc1-c1ccc(SCC(=O)NCc2ccc(F)cc2)nn1	inactive: 0.873%
Cc1ccc(NC(=S)NC2CCN(Cc3ccccc3)CC2)cc1C	inconclusive: -52.7%
Cc1ccc(NC(=S)NC2CCSc3ccccc32)cc1 (stereo not given)	inconclusive: -43.6%
COc1ccccc1/C=C1\SC(N2CCC(C)CC2)=NC1=O	inactive: 1.08%
COC1OC(COC(=O)c2ccccc2)C(OC(=O)c2ccccc2)C1OC(=O)c1ccccc1 (stereo not given)	inactive: -26.5%
Cc1cc(-c2ccc(S(=O)(=O)N(C)c3ccc(C)c(C)c3)s2)on1	inactive: -4.44%
COc1ccccc1CNC(=O)c1ccc(N2CCCC2)c(NC(=O)NCc2ccccc2)c1	inconclusive: -41%
COCC(=O)Nc1cc(C(=O)Nc2cccc(C)c2C)ccc1Cl	inconclusive: -43.7%
COC(=O)c1c(-c2cccc(C)c2)csc1NC(=O)C1CCCO1 (stereo not given)	inconclusive: -57.9%
O=C(Nc1ccc(Br)cc1)C1CCN(c2cnccn2)CC1	inconclusive: -50.8% and inconclusive: -57.5%
Cc1cc(C)nc(N/C(=N\S(=O)(=O)Cc2ccccc2)Nc2ccccc2Br)n1	inconclusive: -55.9%
Cc1ccc(NC(=O)COC(=O)C2=COCCO2)c([N+](=O)[O-])c1	inactive: -10.8%
COCCNC(=O)c1c[nH]c2ccc(S(=O)(=O)N3CCc4ccccc43)cc2c1=O	inconclusive: -56%
CC(C)N(C(=O)N1CCC(c2nc(-c3ccncc3)no2)CC1)C(C)C	inconclusive: -59.8%
COC(=O)c1ccc(CNC(=O)CNC(=O)c2sc3ccccc3c2Cl)cc1	inconclusive: -58.3%
COc1ccc(N2CCN(C(=O)c3ccc(OCC4CCCO4)cc3)CC2)cc1 (stereo not given)	inconclusive: -47.8%
Cc1ccccc1OCCOC(=O)c1nc2nccc(C)n2n1	inconclusive: -40.4%
Cc1nc(N2CCN(c3ccccn3)CC2)c2c(C)c(C(=O)Nc3ccc(F)c(Cl)c3)sc2n1	inconclusive: -59.5%
NC(=O)C[C@H](N)c1cn([C@@H](CC(N)=O)C(=O)N2CCNCC2)nn1	active: -60.1%
CC(=O)c1ccc(Oc2cc(C)nc(-n3nc(C)cc3C)n2)cc1	inconclusive: -58.1%
CCN(CC)c1ccc([N+](=O)[O-])cc1C(=O)O	inconclusive: -40%
CCN1CCN(C(=O)c2ccc3c(Cl)c4c(nc3c2)CCCC4)CC1	inconclusive: 0%

SMILES	activity change, negative = inhibition
Cc1[nH]n(-c2nc(-c3ccccc3F)cc(=O)[nH]2)c(=O)c1CCO	inactive: -25.1%
CN1CCN(NC(=O)CN(C)S(=O)(=O)c2cc(Cl)ccc2Cl)CC1	inactive: -29.1%
Cc1nc2ccccc2c2oc(C(=O)NCCN3CCN(C)CC3)cc12	active: -69.8%
Brc1ccc(Nc2ncnc3[nH]ncc23)cc1	inconclusive: -57.5%
COc1ccc(NC(=O)c2c(NCc3ccc(C)o3)sc3c2CCC(C)C3)c(OC)c1 (stereo not given)	inactive: -34.5%
CCC(=O)N(CCC1(c2ccccc2OC)CCOC(C(C)C)C1)Cc1ccco1 (stereo not given)	inactive: 3.54%
O=C(NCc1nnnn1-c1ccc(Cl)cc1)c1ccc([N+](=O)[O-])o1	active: -63.2%
CCOc1cc(N2CCOCC2)c(OCC)cc1NC(=O)c1ccc(C)cc1	inconclusive: -40.8%
COC(=O)N/N=C\c1cccc(OC(=O)c2cccs2)c1	inactive: -14.4%
Cc1n[nH]c(C)c1CCC(=O)N/N=C/c1cccc([N+](=O)[O-])c1	inconclusive: -43.9%
COC(=O)C[C@H]1C=C[C@H](NS(=O)(=O)c2cn(C)cn2)[C@@H](CO)O1	inactive: -11.5%
O=C(CCNc1ccccc1)c1ccc2c(c1)OCO2	inactive: 126%
COC(=O)C1=C(C)N(Cc2ccc(C)cc2)C(=O)/C1=C\c1ccc(O)c(OC)c1	inactive: 119%
Cc1ccc(S(=O)(=O)NCCSc2nnnn2-c2cc(C)ccc2C)cc1	inactive: 1.77%
CCOn1c(=O)c(-c2ccc(Br)cc2)[n+]([O-])c2ccccc21	inconclusive: -40.4%
COC(=O)c1ccc(-c2noc(CN(C)CCC3CCCCO3)n2)cc1 (stereo not given)	inactive: 13.1%
O=S(=O)(NC1c2cccc3cccc(c23)C1N1CCN(CCO)CC1)c1ccccc1 (stereo not given)	inconclusive: -44.9%
CC(=O)c1cc(-c2ccccc2)n(CC(=O)NC2CCCCC2)c1C	inconclusive: 0%
O=C(CSc1nnc(COc2ccccc2F)n1-c1ccccc1)NC1CCS(=O)(=O)C1 (stereo not given)	inconclusive: -42.9%
Cc1c(Cl)cccc1NC(=S)N(Cc1ccccc1)Cc1cccnc1	inconclusive: -42.6%
COc1ccc(-c2cnnn2-c2ccc(NC(=O)c3ccc(S(=O)(=O)N(C)C)cc3)cc2)cc1	inconclusive: -52.6%
Cc1ccc(Cn2nnc3c(=O)n(CC(=O)OCc4ccccc4)cnc32)cc1	inactive: 38.3%

Filtered by structure: the compounds so far with bromine (four)
SMILES	activity change, negative = inhibition
O=C(Nc1ccc(Br)cc1)C1CCN(c2cnccn2)CC1	inconclusive: -50.8% and inconclusive: -57.5%
Cc1cc(C)nc(N/C(=N\S(=O)(=O)Cc2ccccc2)Nc2ccccc2Br)n1	inconclusive: -55.9%
Brc1ccc(Nc2ncnc3[nH]ncc23)cc1	inconclusive: -57.5%
CCOn1c(=O)c(-c2ccc(Br)cc2)[n+]([O-])c2ccccc21	inconclusive: -40.4%

Remaining list, next part

SMILES	activity change, negative = inhibition
CCSc1cc(N2CCCC2)nc(-c2ccc(C)cc2)n1	inconclusive: -44.5%
CCC(C)NC(=O)CSc1nc2ccccc2c(=O)n1CCCN1CCCCC1 (stereo not given)	inactive: 2.15%
COc1cc(OC)cc(C(=O)NC(=S)Nc2ccc(NC(=O)c3ccco3)cc2)c1	inconclusive: -46.7%
O=C(Cc1cccs1)N1CCN(S(=O)(=O)c2ccc(Br)cc2)CC1	inconclusive: -58.9%
C[C@]12CCC(=O)C=C1C=C[C@@H]1[C@@H]2CC[C@@]2(C)[C@H]1CC[C@@]2(O)CCC(=O)O	inconclusive: -48.1%
Cc1onc(-c2c(Cl)cccc2Cl)c1C(=O)Nc1ccc2c(c1)OCO2	inconclusive: -40.7%
CC(C)(C)c1ccc(NC(=O)C2=CN3CCS(=O)(=O)N=C3C=C2)cc1	inconclusive: -57%
Cc1ccc(C)c(N2CCN(C(=O)Cn3nc(Cc4cccnc4)c4ccccc4c3=O)CC2)c1	inconclusive: -53.3%
COc1cc(S(=O)(=O)NC2CCCC2)ccc1-n1cnnn1	inconclusive: -45.6%
COc1ccc(NC(=O)CCN2CCCCC2)cc1	inactive: 43.4%
COc1ccc(C2C(C(C)=O)=C(O)C(=O)N2c2nccs2)c(OC)c1 (stereo not given)	inconclusive: -49.7%
CNC(=O)CCn1nc(-c2ccc(Cl)cc2)c2ccccc2c1=O	inconclusive: -47.2%
O=C(O)CC(c1ccc(C(F)(F)F)cc1)N1Cc2ccccc2C1=O (stereo not given)	inconclusive: -51.5%
CCOC(=O)c1cc(OC(=O)c2ccc(OC)c(OC)c2)n(-c2ccccc2)n1	inactive: 30.2%
COC(=O)c1[nH]c2cc(OC)ccc2c1NC(=O)CCN1CCN(c2cccc(C)c2C)CC1	inactive: 7.75%
Cc1ccc(N2CC(C(=O)Nc3ccc(Cl)cc3Cl)CC2=O)cc1 (stereo not given)	inconclusive: -55.4%
CC(C)=CCC/C(C)=C/C(N)=O	inconclusive: -43.6%
COc1ccc(S(=O)(=O)N2CC(C)N(C(=O)N(C)C)C2C(C)C)cc1 (stereo not given)	inconclusive: -52.9%
CCCCN(CC)C(=O)Cn1nc(C)c2c(C)n(-c3ccccc3)nc2c1=O	inactive: -4.08%
